Tested on: universal monoclonal antibody against type I pyrethroid (hybridoma cell line QW8#)
Assay: conventional indirect competitive ELISA
Assay type: binding, mouse
Text: To screen the target positive hybridoma cell line that is a highly specific and sensitive cell line against pyrethroid containing a diphenyl ether structure (by screening with etofenprox standard), the traditional two-step screening method was modified in this experiment. A gradient screening method was used in the indirect competitive ELISA screening process. (1) In the first step, an indirect non-competitive ELISA was used to screen the positive wells that recognized the diphenyl ether structure, but not the carrier protein (BSA). (2) In the second step, gradient screening was adopted for the indirect competitive ELISA; and the detection after the first subcloning was carried out by using 5 μg/mL etofenprox standard, the detection after the second subcloning was carried out by using 2 μg/mL etofenprox standard, and the detection after the third subcloning was carried out by using 1 μg/mL etofenprox standard. The positive wells with relatively small B/B0 were selected, where B is the absorbance in the control well […] etofenprox standard, and B0 is the absorbance in the wells with etofenprox standard. The cells were cloned by limiting dilution, and detected about 10 days after the cloning by using the same two-step method as described above. After repeated cloning for 2-3 times, the hybridoma cell line QW8# was obtained.
The affinity for QW8# was determined by indirect non-competitive ELISA. The plate was coated at 37° C. for 2 hours with Hapten-1-BSA at concentrations of 2.0, 1.0, 0.5, and 0.25 μg/mL in an amount of 100 μL/well. After the plate was blocked with a blocking solution for 1 hour, the antibody diluted with PBS (at a dilution factor of 1:2) was added to the plate and the rest steps were the same as those in indirect non-competitive ELISA. The OD450 values measured was used as the vertical coordinates, the values of the logarithm of the antibody concentrations (mol/L) were used as the horizontal coordinates, 4 S-shaped curves corresponding to the 4 concentrations were plotted. […]

With `CCOc1ccc(C(C)(C)COCc2cccc(Oc3ccccc3)c2)cc1` [etofenprox] the minimum detectable limit was 3.16 µg/L.

`CC1(C)C(C=C(Cl)Cl)C1C(=O)OCc1cccc(Oc2ccccc2)c1` (stereo not drawn) [permethrin] was tested, and the minimum detectable limit was 3.72 µg/L.

Work on `CC(C)=CC1C(C(=O)OCc2cccc(Oc3ccccc3)c2)C1(C)C` (stereo not drawn) [phenothrin] yielded a minimum detectable limit of 4.27 µg/L.

Reference: patent US10809252B2, “Time-resolved fluorescent immunochromatographic assay rapid test kit for type I pyrethroid” (priority 2017, dated 2020)
